B1: SHCBP1 (amino acids 1-672), for Co-IP (protein, UniProt Q8NEM2 1-672)
chain: MADGSLTGGGLEAAAMAPERMGWAVEQELASLEKGLFQDEDSCSDCSYRDKPGSSLQSFMPEGKTFFPEIFQTNQLLFYERFRAYQDYILADCKASEVQEFTAEFLEKVLEPSGWRAVWHTNVFKVLVEITDVDFAALKAVVRLAEPYLCDSQVSTFTMECMKELLDLKEHRLPLQELWVVFDDSGVFDQTALAIEHVRFFYQNIWRSWDEEEEDEYDYFVRCVEPRLRLHYDILEDRVPSGLIVDYHNLLSQCEESYRKFLNLRSSLSNCNSDSEQENISMVEGLKLYSEMEQLKQKLKLIENPLLRYVFGYQKNSNIQAKGVRSSGQKITHVVSSTMMAGLLRSLLTDRLCQEPGEEEREIQFHSDPLSAINACFEGDTVIVCPGHYVVHGTFSIADSIELEGYGLPDDIVIEKRGKGDTFVDCTGADIKISGIKFVQHDAVEGILIVHRGKTTLENCVLQCETTGVTVRTSAEFLMKNSDLYGAKGAGIEIYPGSQCTLSDNGIHHCKEGILIKDFLDEHYDIPKISMVNNIIHNNEGYGVVLVKPTIFSDLQENAEDGTEENKALKIQTSGEPDVAERVDLEELIECATGKMELCARTDPSEQVEGNCEIVNELIAASTQKGQIKKKRLSELGITQADDNLMSQEMFVGIVGNQFKWNGKGSFGTFLF
B2: SHCBP1 (amino acids 1-562), for Co-IP (domain or fragment, UniProt Q8NEM2 1-562)
chain: MADGSLTGGGLEAAAMAPERMGWAVEQELASLEKGLFQDEDSCSDCSYRDKPGSSLQSFMPEGKTFFPEIFQTNQLLFYERFRAYQDYILADCKASEVQEFTAEFLEKVLEPSGWRAVWHTNVFKVLVEITDVDFAALKAVVRLAEPYLCDSQVSTFTMECMKELLDLKEHRLPLQELWVVFDDSGVFDQTALAIEHVRFFYQNIWRSWDEEEEDEYDYFVRCVEPRLRLHYDILEDRVPSGLIVDYHNLLSQCEESYRKFLNLRSSLSNCNSDSEQENISMVEGLKLYSEMEQLKQKLKLIENPLLRYVFGYQKNSNIQAKGVRSSGQKITHVVSSTMMAGLLRSLLTDRLCQEPGEEEREIQFHSDPLSAINACFEGDTVIVCPGHYVVHGTFSIADSIELEGYGLPDDIVIEKRGKGDTFVDCTGADIKISGIKFVQHDAVEGILIVHRGKTTLENCVLQCETTGVTVRTSAEFLMKNSDLYGAKGAGIEIYPGSQCTLSDNGIHHCKEGILIKDFLDEHYDIPKISMVNNIIHNNEGYGVVLVKPTIFSDLQENAEDG
B3: SHCBP1 (amino acids 64-562), for Co-IP (domain or fragment, UniProt Q8NEM2 64-562)
chain: KTFFPEIFQTNQLLFYERFRAYQDYILADCKASEVQEFTAEFLEKVLEPSGWRAVWHTNVFKVLVEITDVDFAALKAVVRLAEPYLCDSQVSTFTMECMKELLDLKEHRLPLQELWVVFDDSGVFDQTALAIEHVRFFYQNIWRSWDEEEEDEYDYFVRCVEPRLRLHYDILEDRVPSGLIVDYHNLLSQCEESYRKFLNLRSSLSNCNSDSEQENISMVEGLKLYSEMEQLKQKLKLIENPLLRYVFGYQKNSNIQAKGVRSSGQKITHVVSSTMMAGLLRSLLTDRLCQEPGEEEREIQFHSDPLSAINACFEGDTVIVCPGHYVVHGTFSIADSIELEGYGLPDDIVIEKRGKGDTFVDCTGADIKISGIKFVQHDAVEGILIVHRGKTTLENCVLQCETTGVTVRTSAEFLMKNSDLYGAKGAGIEIYPGSQCTLSDNGIHHCKEGILIKDFLDEHYDIPKISMVNNIIHNNEGYGVVLVKPTIFSDLQENAEDG
B4: SHCBP1 (amino acids 64-210), for Co-IP (domain or fragment, UniProt Q8NEM2 64-210)
chain: KTFFPEIFQTNQLLFYERFRAYQDYILADCKASEVQEFTAEFLEKVLEPSGWRAVWHTNVFKVLVEITDVDFAALKAVVRLAEPYLCDSQVSTFTMECMKELLDLKEHRLPLQELWVVFDDSGVFDQTALAIEHVRFFYQNIWRSWD
B5: SHCBP1 (amino acids 291-562), for Co-IP (domain or fragment, UniProt Q8NEM2 291-562)
chain: EMEQLKQKLKLIENPLLRYVFGYQKNSNIQAKGVRSSGQKITHVVSSTMMAGLLRSLLTDRLCQEPGEEEREIQFHSDPLSAINACFEGDTVIVCPGHYVVHGTFSIADSIELEGYGLPDDIVIEKRGKGDTFVDCTGADIKISGIKFVQHDAVEGILIVHRGKTTLENCVLQCETTGVTVRTSAEFLMKNSDLYGAKGAGIEIYPGSQCTLSDNGIHHCKEGILIKDFLDEHYDIPKISMVNNIIHNNEGYGVVLVKPTIFSDLQENAEDG
B6: SHCBP1 (amino acids 355-562), for Co-IP (domain or fragment, UniProt Q8NEM2 355-562)
chain: EPGEEEREIQFHSDPLSAINACFEGDTVIVCPGHYVVHGTFSIADSIELEGYGLPDDIVIEKRGKGDTFVDCTGADIKISGIKFVQHDAVEGILIVHRGKTTLENCVLQCETTGVTVRTSAEFLMKNSDLYGAKGAGIEIYPGSQCTLSDNGIHHCKEGILIKDFLDEHYDIPKISMVNNIIHNNEGYGVVLVKPTIFSDLQENAEDG
B7: His-tagged SHCBP1 truncation (amino acids 1-562) (domain or fragment, UniProt Q8NEM2 1-562)
chain: MADGSLTGGGLEAAAMAPERMGWAVEQELASLEKGLFQDEDSCSDCSYRDKPGSSLQSFMPEGKTFFPEIFQTNQLLFYERFRAYQDYILADCKASEVQEFTAEFLEKVLEPSGWRAVWHTNVFKVLVEITDVDFAALKAVVRLAEPYLCDSQVSTFTMECMKELLDLKEHRLPLQELWVVFDDSGVFDQTALAIEHVRFFYQNIWRSWDEEEEDEYDYFVRCVEPRLRLHYDILEDRVPSGLIVDYHNLLSQCEESYRKFLNLRSSLSNCNSDSEQENISMVEGLKLYSEMEQLKQKLKLIENPLLRYVFGYQKNSNIQAKGVRSSGQKITHVVSSTMMAGLLRSLLTDRLCQEPGEEEREIQFHSDPLSAINACFEGDTVIVCPGHYVVHGTFSIADSIELEGYGLPDDIVIEKRGKGDTFVDCTGADIKISGIKFVQHDAVEGILIVHRGKTTLENCVLQCETTGVTVRTSAEFLMKNSDLYGAKGAGIEIYPGSQCTLSDNGIHHCKEGILIKDFLDEHYDIPKISMVNNIIHNNEGYGVVLVKPTIFSDLQENAEDG
B8: His-tagged SHCBP1 truncation (amino acids 64-562) (domain or fragment, UniProt Q8NEM2 64-562)
chain: KTFFPEIFQTNQLLFYERFRAYQDYILADCKASEVQEFTAEFLEKVLEPSGWRAVWHTNVFKVLVEITDVDFAALKAVVRLAEPYLCDSQVSTFTMECMKELLDLKEHRLPLQELWVVFDDSGVFDQTALAIEHVRFFYQNIWRSWDEEEEDEYDYFVRCVEPRLRLHYDILEDRVPSGLIVDYHNLLSQCEESYRKFLNLRSSLSNCNSDSEQENISMVEGLKLYSEMEQLKQKLKLIENPLLRYVFGYQKNSNIQAKGVRSSGQKITHVVSSTMMAGLLRSLLTDRLCQEPGEEEREIQFHSDPLSAINACFEGDTVIVCPGHYVVHGTFSIADSIELEGYGLPDDIVIEKRGKGDTFVDCTGADIKISGIKFVQHDAVEGILIVHRGKTTLENCVLQCETTGVTVRTSAEFLMKNSDLYGAKGAGIEIYPGSQCTLSDNGIHHCKEGILIKDFLDEHYDIPKISMVNNIIHNNEGYGVVLVKPTIFSDLQENAEDG
B9: His-tagged SHCBP1 truncation (amino acids 64-210) (domain or fragment, UniProt Q8NEM2 64-210)
chain: KTFFPEIFQTNQLLFYERFRAYQDYILADCKASEVQEFTAEFLEKVLEPSGWRAVWHTNVFKVLVEITDVDFAALKAVVRLAEPYLCDSQVSTFTMECMKELLDLKEHRLPLQELWVVFDDSGVFDQTALAIEHVRFFYQNIWRSWD
B10: His-tagged SHCBP1 truncation (amino acids 291-562) (domain or fragment, UniProt Q8NEM2 291-562)
chain: EMEQLKQKLKLIENPLLRYVFGYQKNSNIQAKGVRSSGQKITHVVSSTMMAGLLRSLLTDRLCQEPGEEEREIQFHSDPLSAINACFEGDTVIVCPGHYVVHGTFSIADSIELEGYGLPDDIVIEKRGKGDTFVDCTGADIKISGIKFVQHDAVEGILIVHRGKTTLENCVLQCETTGVTVRTSAEFLMKNSDLYGAKGAGIEIYPGSQCTLSDNGIHHCKEGILIKDFLDEHYDIPKISMVNNIIHNNEGYGVVLVKPTIFSDLQENAEDG
B11: His-tagged SHCBP1 truncation (amino acids 355-562) (domain or fragment, UniProt Q8NEM2 355-562)
chain: EPGEEEREIQFHSDPLSAINACFEGDTVIVCPGHYVVHGTFSIADSIELEGYGLPDDIVIEKRGKGDTFVDCTGADIKISGIKFVQHDAVEGILIVHRGKTTLENCVLQCETTGVTVRTSAEFLMKNSDLYGAKGAGIEIYPGSQCTLSDNGIHHCKEGILIKDFLDEHYDIPKISMVNNIIHNNEGYGVVLVKPTIFSDLQENAEDG
B12: His-tagged full-length SHCBP1 (protein, UniProt Q8NEM2 1-672)
chain: MADGSLTGGGLEAAAMAPERMGWAVEQELASLEKGLFQDEDSCSDCSYRDKPGSSLQSFMPEGKTFFPEIFQTNQLLFYERFRAYQDYILADCKASEVQEFTAEFLEKVLEPSGWRAVWHTNVFKVLVEITDVDFAALKAVVRLAEPYLCDSQVSTFTMECMKELLDLKEHRLPLQELWVVFDDSGVFDQTALAIEHVRFFYQNIWRSWDEEEEDEYDYFVRCVEPRLRLHYDILEDRVPSGLIVDYHNLLSQCEESYRKFLNLRSSLSNCNSDSEQENISMVEGLKLYSEMEQLKQKLKLIENPLLRYVFGYQKNSNIQAKGVRSSGQKITHVVSSTMMAGLLRSLLTDRLCQEPGEEEREIQFHSDPLSAINACFEGDTVIVCPGHYVVHGTFSIADSIELEGYGLPDDIVIEKRGKGDTFVDCTGADIKISGIKFVQHDAVEGILIVHRGKTTLENCVLQCETTGVTVRTSAEFLMKNSDLYGAKGAGIEIYPGSQCTLSDNGIHHCKEGILIKDFLDEHYDIPKISMVNNIIHNNEGYGVVLVKPTIFSDLQENAEDGTEENKALKIQTSGEPDVAERVDLEELIECATGKMELCARTDPSEQVEGNCEIVNELIAASTQKGQIKKKRLSELGITQADDNLMSQEMFVGIVGNQFKWNGKGSFGTFLF

The chains behind the UniProt entries cited, without tags or fusion partners. Where a name states a change or a piece, a line headed by the entry shows the natural chain unless it says otherwise. A line that says so, or that is headed by a name, gives the form on record, which may keep a tag or linker. Residues count along the entry.
UniProt P33993: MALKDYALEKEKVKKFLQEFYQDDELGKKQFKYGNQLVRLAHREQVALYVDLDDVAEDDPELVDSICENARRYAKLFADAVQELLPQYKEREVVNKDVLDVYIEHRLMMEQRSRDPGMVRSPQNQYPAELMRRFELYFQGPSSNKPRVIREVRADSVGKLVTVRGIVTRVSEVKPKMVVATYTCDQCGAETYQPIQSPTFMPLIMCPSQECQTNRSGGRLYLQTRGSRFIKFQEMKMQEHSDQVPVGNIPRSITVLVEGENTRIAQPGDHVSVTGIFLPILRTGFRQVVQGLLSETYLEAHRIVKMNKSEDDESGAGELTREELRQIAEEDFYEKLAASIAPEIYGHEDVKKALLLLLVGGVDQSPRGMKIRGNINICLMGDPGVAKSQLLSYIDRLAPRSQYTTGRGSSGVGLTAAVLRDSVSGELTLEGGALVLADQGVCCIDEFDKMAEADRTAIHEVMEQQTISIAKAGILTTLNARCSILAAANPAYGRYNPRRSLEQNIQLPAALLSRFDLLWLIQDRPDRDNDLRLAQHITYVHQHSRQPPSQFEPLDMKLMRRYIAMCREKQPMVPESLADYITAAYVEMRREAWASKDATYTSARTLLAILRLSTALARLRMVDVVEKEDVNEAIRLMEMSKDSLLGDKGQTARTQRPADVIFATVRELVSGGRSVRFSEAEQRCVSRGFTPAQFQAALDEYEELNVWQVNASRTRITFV
GST-tagged truncated MCM7 fragment, N-terminal domain (amino acids 10-140): residues 10-140 of P33993
GST-tagged truncated MCM7 fragment, AAA domain (amino acids 373-526): residues 373-526 of P33993

These are yes or no findings as the source states them, for the method shown. For some of these results: In cells and extracts the contact can be indirect. Some results given as binding are weak or reduced against the parent protein; the word gives no strength. For some of these results: Where a sequence is shown, tags or fusion partners need not be part of it.

The target in one experiment is FLAG/HA-tagged MCM7 (full length) (UniProt P33993). Kind of experiment: co-IP; serial truncations of SHCBP1 and full-length MCM7 co-expressed in HEK293T cells (Fig. 4H).
B1: the binding result was “binds”.
As to B2, the binding entry was “binds”.
Same read-out and setting: next, B3: “binds”.
On to B4, for which the binding entry is “binds”.
With B5, the binding result is “binds”.
In the case of B6, the binding entry is reported as “binds”.

A further experiment deals with GST-tagged MCM7 (UniProt P33993). Kind of experiment: pull-down; GST/His pull-down; purified GST-tagged and His-tagged proteins mixed in 0.5 ml binding buffer (50 mM Tris-HCl pH 7.4, 150 mM NaCl, 0.5% Triton X-100) with Glutathione Sepharose 4B beads and HisPur Ni-NTA Resin overnight at 4 °C; Western blot with GST and His antibodies; both purified. For orientation: In western blotting, separated proteins are transferred to a membrane and probed.
For the molecule B7, the binding entry is “binds”.
B8: the binding result is “binds”.
On to B9, for which the binding entry is recorded as “binds”.
For the molecule B10, the binding result is listed as “binds”.
For the molecule B11, the binding entry is on record as “binds”.

For a further experiment, the target named is GST-tagged truncated MCM7 fragment, N-terminal domain (amino acids 10-140) (UniProt P33993). The experiment is described as above.
For the molecule B12, the binding entry is recorded as “binds”.

The target of the next experiment is GST-tagged truncated MCM7 fragment, AAA domain (amino acids 373-526) (UniProt P33993). Described as above.
With B12, the binding entry is recorded as “binds”.

These data come from article PMC12339988.
